PubChem BioAssay AID504793 – Drosophila RNAi Screening Center – 2011

- Aim: 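Genes required for cells to halt at G2/M after double-strand DNA breaks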 (primary screen)
- Cells: Drosophila S2R+ cells
- Reagent: long dsRNA against Drosophila genes, about 0.25 µg dsRNA per well
- Time to read-out: 4 days of dsRNA, then 4 hours of drug before read-out
- Treatment: doxorubicin 0.5 µM for 4 hours to cause double-strand breaks, in cells also given a low, harmless dose of dsRNA against nbs to sensitise the assay
- Measured: 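Per-well count of mitotic cells stained for phospho-histone H3 after doxorubicin exposure, used as mitotic index; counts are raw and not normalised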
- Scale: mitotic cells: higher = more cells in mitosis, weaker G2 arrest
- Call rule: 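a call needs confirmation in secondary tests, with other dsRNAs and a check of mitotic timing without damage, not just a high primary count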
- Calls: active = confirmed in follow-up tests; inactive = not confirmed
In all, the deposit lists about 23,000 reagents; this is an unselected part of those with a known target gene and a result. Of all reagents, 62 (0.27%) got an active call. 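Calls come from follow-up tests whose scores are not deposited, so confirmed genes may have low counts here; counts are not normalised per plate.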 The raw values are shown without normalisation. A plus sign joins genes that one reagent is predicted to hit.

mitotic cells, replicate 1	mitotic cells, replicate 2	call	predicted target	DRSC id
5		inactive	Strn-Mlck	DRSC05032
11		inactive	Strn-Mlck	DRSC07471
		inactive	CG14321	DRSC14800
6		inactive	CG14321	DRSC26935
5		inactive	ctrip	DRSC12242
2		inactive	ctrip	DRSC12287
26		inactive	ctrip	DRSC22449
1		inactive	ctrip	DRSC23512
5		inactive	ctrip	DRSC27589
4	5	inactive	mol	DRSC01431
2		inactive	mol	DRSC01912
9		inactive	mol	DRSC02479
9		inactive	mol	DRSC23967
3		inactive	drl	DRSC03523
7		inactive	drl	DRSC28564
7		inactive	Sbds	DRSC10992
11		inactive	CG7656	DRSC10900
7		inactive	tplus3a + tplus3b	DRSC03687
1		inactive	twe	DRSC03628
5		inactive	twe	DRSC27109
1		inactive	TwdlG	DRSC12229
8		inactive	TwdlG	DRSC27678
6		inactive	SKIP	DRSC14713
7		inactive	SKIP	DRSC14714
13		inactive	SKIP	DRSC15864
11	13	inactive	SKIP	DRSC16195
10		inactive	SKIP	DRSC16196
3		inactive	CG18810	DRSC02701
9		inactive	Cp18	DRSC11120
10		inactive	JMJD6	DRSC15787
6		inactive	JMJD6	DRSC26657
4		inactive	E(spl)mgamma-HLH	DRSC16699
2		inactive	E(spl)mgamma-HLH	DRSC25532
6		inactive	vn	DRSC23221
5		inactive	vn	DRSC26550
2		inactive	CG11790	DRSC14390
3		inactive	atms	DRSC12310
5		inactive	atms	DRSC27502
2		inactive	CG34345	DRSC02126
15		active	MED17	DRSC16889
9		inactive	tank	DRSC00461
7		inactive	Spn28Da	DRSC02162
4		inactive	CG33120	DRSC02073
5		inactive	Prat2	DRSC09692
2		inactive	Usp5	DRSC08244
4		inactive	Usp5	DRSC28531
6		inactive	Aef1	DRSC11605
6		inactive	pr	DRSC03596
5		inactive	Eig71Ei	DRSC11156
5		inactive	Eig71Ei	DRSC29123
8		inactive	eRF1	DRSC11779
8		inactive	eRF1	DRSC27974
12		inactive	bou	DRSC17924
5		inactive	CG6761	DRSC10705
11		inactive	Zasp52	DRSC06269
7		inactive	Zasp52	DRSC07121
5		inactive	CG7974	DRSC08607
5		inactive	CG7974	DRSC26643
6		inactive	dhd	DRSC18761
7		inactive	dhd	DRSC29590
6		inactive	BORCS7 + CG13430	DRSC06392
8		inactive	BORCS7 + CG13430	DRSC06707
9		inactive	Nnf1b	DRSC22080
6		inactive	Nnf1b	DRSC25920
6		inactive	His3.3B	DRSC17773
15		inactive	His3.3B	DRSC18673
11		inactive	His3.3B	DRSC28380
3		inactive	His3.3B	DRSC28708
12		inactive	CG14913	DRSC02397
4		inactive	CG14913	DRSC27967
6		inactive	CG34409	DRSC14577
7		inactive	CG34409	DRSC21667
3		inactive	Oatp33Ea	DRSC02859
9		inactive	Oatp33Ea	DRSC26461
2		inactive	bru1	DRSC01234
22		inactive	bru1	DRSC01236
16		inactive	bru1	DRSC01237
21		inactive	bru1	DRSC01238
3		inactive	bru1	DRSC03485
9		inactive	CheB38b	DRSC22874
10		inactive	Cmtr1	DRSC18400
9		inactive	Cmtr1	DRSC27812
9		inactive	CG5033	DRSC07410
1		inactive	CG5033	DRSC27783
8		inactive	CG17050 (retired record)	DRSC06651
56		active	MBD-R2	DRSC14180
9		inactive	CCAP-R	DRSC14891
8		inactive	CCAP-R	DRSC15967
6		inactive	CCAP-R	DRSC29494
8		inactive	Cks30A	DRSC03292
6		inactive	CG3270	DRSC04988
15		inactive	xmas	DRSC21306
20		inactive	xmas	DRSC22178
7		inactive	CG1806	DRSC19787
3		inactive	CG5359 + Spn85F	DRSC26211
10		inactive	CG18731	DRSC15377
5		inactive	UbcE2H	DRSC18221
6		inactive	UbcE2H	DRSC27123
18		inactive	CG42264	DRSC18074
6		inactive	CG42264	DRSC18075
1		inactive	CG42264	DRSC28051
2		inactive	CG9588	DRSC16504
8		inactive	E(spl)malpha-BFM	DRSC16994
11		inactive	E(spl)malpha-BFM	DRSC28358
10		inactive	tej	DRSC07219
6		inactive	tej	DRSC24278
8		inactive	Or42b	DRSC04913
10		inactive	Or42b	DRSC27273
13		inactive	Tim23	DRSC21240
7		inactive	CG33494	DRSC13715
